In patent US20100047230A1 (HELLENIC PASTEUR INSTITUTE, published 2010):
These are yes or no findings as the source states them, for the method shown. Some binding calls cover weakened binding; strength is not graded here.

Target: recombinant Her2/neu extracellular domain (ECD) expressed in yeast Pichia pastoris (human) (UniProt P04626)
Assay: ELISA on coated Her2-ECD (10 µg/ml)

B1: Fab63 (Fab, V domains shown)
VH: EVQLLEWGPGLVKPSGTLSLTCAVSGGSIRDSNWWGWVRQPPGKGLEWIGEIYHSGTTNYNPSLKSRVTISVDKSKNQFSLNLSSVTAADTAVYYCAREDCSYGSCYFDYWGQGTLVTVSS
VL: ELTLTQSPSSLSASLGDRVTIRCRASQSISAALNWYQQKPGKAPKLLIHDVSTLQSGVPARFSGGGSETDFTLTISSLQPEDFATYYCQQSYRVPLTFGGGTRLEIK
notes: Fully human soluble Fab made in E. coli from pComb3H; Heavy chain is an Fd of the gamma1 isotype (VH-CH1), light chain is kappa (VL of the K subgroup, with Ckappa); also called human Fab 63; clone 63
Q: B1 was tested. Which binding did it give?
A: binds
